Test results published in patent US20020048812A1, “Isolation and in vitro differentiation of conditionally immortalized murine olfactory receptor neurons” (priority 2000, published 2002).

Test system: 3NA12 cells
Test: Calcium imaging (Fura-2) of odorant responses in clone 3NA12
Type: cell-based, mouse
Conditions: 10 μM single odorant
Experimental: Prior to experiments (2-4 days), cells were plated onto glass coverslips and incubated in permissive conditions. To prepare for stimulation, cells were loaded with Fura-2 ([…]) for 30 minutes at 33° C., washed, and allowed to equilibrate for a further 30 minutes at room temperature. At the beginning of the experiment, cells were washed (W) to determine whether the mechanical disturbance associated with changing solution affected intracellular calcium concentrations.
To determine whether cells from the 3NA12 clone were capable of functional responses to odorants, single odorants were applied to cells loaded with Fura-2. […] Since the onset of odorant receptor expression is at c. E13 in the rat (Strotmann et al., 1995), and each of the components of the signal transduction pathway is present in cells cultured in permissive conditions, cells at permissive conditions were chosen for all subsequent experiments.
Cloned olfactory receptor neurons were plated onto glass coverslips up to one week before imaging. On the day of analysis, the culture medium was removed and replaced with MDV containing 2 μM Fura-2-AM (Molecular Probes, Eugene, Oreg.) and 0.2% Pluronic F-127 (Sigma) dissolved in DMSO. […] Cells were illuminated at 340 nm and 380 nm and the emission at 510 nm was monitored using an intensified CCD camera. […]

## CC(C)CC(=O)O [isovaleric acid]
1256 cells
  Cells responding to each odorant: ~1%
Total of 1256 cells in nineteen experiments, permissive conditions
  Cells responding to the odorant (increase in intracellular calcium concentration): 12 cells
